Test [1] concerns the target apoptosis-associated speck-like protein containing a CARD domain (ASC), human (human (endogenous in THP-1)) (UniProt Q9ULZ3). The test can be described thus: co-IP; lysates of LPS-primed BMDMs or PMA-differentiated THP-1 macrophages (MSU crystals 100 ug/ml 24 h, with or without LXA4 50-150 nM; also TXNRD2 siRNA in THP-1); antibody against ASC (1:100) overnight at 4°C, Protein G agarose beads 2 h at 4°C; Western blotting.

By UniProt entry, the sequences of proteins in these tests, tags left out.
UniProt Q9ULZ3: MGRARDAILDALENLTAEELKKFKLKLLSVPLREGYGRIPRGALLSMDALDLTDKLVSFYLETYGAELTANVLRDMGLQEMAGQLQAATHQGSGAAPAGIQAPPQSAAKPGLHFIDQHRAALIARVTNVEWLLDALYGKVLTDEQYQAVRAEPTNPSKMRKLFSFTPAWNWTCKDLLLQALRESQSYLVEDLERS
UniProt P29466: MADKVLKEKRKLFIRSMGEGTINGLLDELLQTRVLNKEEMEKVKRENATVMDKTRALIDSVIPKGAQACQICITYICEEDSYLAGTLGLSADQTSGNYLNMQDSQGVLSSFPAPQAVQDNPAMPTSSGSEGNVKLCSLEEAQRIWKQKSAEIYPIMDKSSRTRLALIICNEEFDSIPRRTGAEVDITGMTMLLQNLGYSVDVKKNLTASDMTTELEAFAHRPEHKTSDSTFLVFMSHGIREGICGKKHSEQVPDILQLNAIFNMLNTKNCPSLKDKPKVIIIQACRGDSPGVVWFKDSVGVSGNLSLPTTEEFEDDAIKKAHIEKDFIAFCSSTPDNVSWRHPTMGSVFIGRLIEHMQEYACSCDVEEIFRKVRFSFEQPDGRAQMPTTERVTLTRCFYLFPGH

Test [2] concerns the target T1, apoptosis-associated speck-like protein containing a CARD domain (ASC), mouse (mouse (endogenous in BMDMs)) (UniProt Q9EPB4).
T1 sequence: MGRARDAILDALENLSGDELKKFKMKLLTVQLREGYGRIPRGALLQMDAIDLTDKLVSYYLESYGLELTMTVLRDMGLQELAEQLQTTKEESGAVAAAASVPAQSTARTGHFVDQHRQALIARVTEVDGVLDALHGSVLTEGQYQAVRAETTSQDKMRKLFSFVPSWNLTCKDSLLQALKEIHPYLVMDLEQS
The test is described as above.

Results are given in words; binding and its absence hold for the method and conditions named. In cells and extracts the contact can be indirect. Some entries that bind do so weakly or less than the wild type.

For the molecule “pro-caspase-1, human (from UniProt P29466 1-404)”, the binding result in test [1] is given as “binds”.

B1: pro-caspase-1, mouse (protein, UniProt P29452 1-402)
chain: MADKILRAKRKQFINSVSIGTINGLLDELLEKRVLNQEEMDKIKLANITAMDKARDLCDHVSKKGPQASQIFITYICNEDCYLAGILELQSAPSAETFVATEDSKGGHPSSSETKEEQNKEDGTFPGLTGTLKFCPLEKAQKLWKENPSEIYPIMNTTTRTRLALIICNTEFQHLSPRVGAQVDLREMKLLLEDLGYTVKVKENLTALEMVKEVKEFAACPEHKTSDSTFLVFMSHGIQEGICGTTYSNEVSDILKVDTIFQMMNTLKCPSLKDKPKVIIIQACRGEKQGVVLLKDSVRDSEEDFLTDAIFEDDGIKKAHIEKDFIAFCSSTPDNVSWRHPVRGSLFIESLIKHMKEYAWSCDLEDIFRKVRFSFEQPEFRLQMPTADRVTLTKRFYLFPGH
B1: the binding result in test [2] is listed as “binds”.

For the origin of these results see article PMC9772058.
